Results are given in words; binding and its absence hold for the method and conditions named.
What was measured:
[1] = biological target: His-huTDP-43 domain II (amino acid residues 99-204) (human); assay: direct ELISA, TDP-43 fragments coated at 6.6 ug/ml, OD 450
[2] = biological target: His-huTDP-43 domain II (amino acid residues 99-204) (human); assay: Western blot, 300 ng recombinant protein per lane, primary antibody 10 nM

B1: NI-205.41D1 (antibody, human IgG1, V domains shown)
VH: EVQLVESGGGLVQPGGSLRLSCAASGFTFSTYYMSWVRQAPGKGLEWVANIKQDGSEKYYVDSVKGRFTISRDNARNSLYLQMHSLRAEDTAVYYCASPPGWWGQGTLVTVSS
VL: DIVMTQTPLSLSVTPGQPASISCKSSQSLLHSDGKTYLYWYLQKPGQPPQLLIYEVSNRFSGVPDRFSGSGSGTDFTLKISRVEAEDVGVYYCMQSIQLPVTFGGGTKVEIK
- binding [1]: no binding
- binding [2]: no binding (tested: 10 nM)

Reference: patent US20170152308A1
